Experimental findings from the supplement of paper PMC10849652 are described below.

Amino acid sequences for entries named in this document (tags omitted). A change or cut given only in a name is not applied to a line headed by its entry.
UniProt Q9NPA0: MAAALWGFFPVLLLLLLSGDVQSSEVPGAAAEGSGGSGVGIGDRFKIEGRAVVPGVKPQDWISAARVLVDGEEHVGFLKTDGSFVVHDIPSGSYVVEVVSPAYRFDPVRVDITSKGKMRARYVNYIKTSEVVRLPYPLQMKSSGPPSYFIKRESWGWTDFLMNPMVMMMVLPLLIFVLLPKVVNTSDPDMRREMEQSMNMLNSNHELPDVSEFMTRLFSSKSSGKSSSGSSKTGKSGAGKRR
UniProt P05198, whole entry, looked up: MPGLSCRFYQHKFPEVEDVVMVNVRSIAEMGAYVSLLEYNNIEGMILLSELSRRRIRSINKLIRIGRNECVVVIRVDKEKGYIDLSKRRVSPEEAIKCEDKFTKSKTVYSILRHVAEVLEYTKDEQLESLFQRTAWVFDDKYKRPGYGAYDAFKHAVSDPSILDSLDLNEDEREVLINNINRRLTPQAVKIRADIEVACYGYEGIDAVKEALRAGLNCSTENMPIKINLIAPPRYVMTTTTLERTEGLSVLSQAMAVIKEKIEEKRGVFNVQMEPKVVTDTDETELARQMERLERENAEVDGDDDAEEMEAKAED
UniProt P11171, whole entry, looked up: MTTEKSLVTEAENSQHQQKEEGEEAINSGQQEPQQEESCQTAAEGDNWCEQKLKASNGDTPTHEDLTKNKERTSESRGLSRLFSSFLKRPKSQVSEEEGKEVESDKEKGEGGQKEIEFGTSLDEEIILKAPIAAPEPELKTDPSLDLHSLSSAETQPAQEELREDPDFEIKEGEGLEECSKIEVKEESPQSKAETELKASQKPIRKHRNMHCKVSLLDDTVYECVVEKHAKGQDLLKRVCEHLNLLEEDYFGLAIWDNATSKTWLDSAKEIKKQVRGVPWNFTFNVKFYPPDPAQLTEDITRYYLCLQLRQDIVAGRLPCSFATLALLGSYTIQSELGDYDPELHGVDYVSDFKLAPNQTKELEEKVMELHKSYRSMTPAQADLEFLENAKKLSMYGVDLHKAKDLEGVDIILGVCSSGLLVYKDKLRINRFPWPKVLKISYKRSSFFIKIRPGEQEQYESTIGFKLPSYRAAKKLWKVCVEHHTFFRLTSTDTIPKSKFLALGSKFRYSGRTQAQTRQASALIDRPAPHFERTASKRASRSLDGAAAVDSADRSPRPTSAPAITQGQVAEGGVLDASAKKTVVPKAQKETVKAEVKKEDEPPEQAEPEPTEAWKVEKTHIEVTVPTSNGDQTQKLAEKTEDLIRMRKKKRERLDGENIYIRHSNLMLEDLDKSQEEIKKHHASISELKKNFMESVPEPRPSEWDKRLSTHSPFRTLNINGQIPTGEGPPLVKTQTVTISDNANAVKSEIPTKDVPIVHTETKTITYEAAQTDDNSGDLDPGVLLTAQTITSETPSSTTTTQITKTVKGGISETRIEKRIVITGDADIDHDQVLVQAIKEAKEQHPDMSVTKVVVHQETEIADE
UniProt O43768: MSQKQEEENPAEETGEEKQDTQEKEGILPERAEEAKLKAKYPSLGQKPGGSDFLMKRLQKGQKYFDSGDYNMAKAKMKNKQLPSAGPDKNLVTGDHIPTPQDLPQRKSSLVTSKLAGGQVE
UniProt Q6IA86: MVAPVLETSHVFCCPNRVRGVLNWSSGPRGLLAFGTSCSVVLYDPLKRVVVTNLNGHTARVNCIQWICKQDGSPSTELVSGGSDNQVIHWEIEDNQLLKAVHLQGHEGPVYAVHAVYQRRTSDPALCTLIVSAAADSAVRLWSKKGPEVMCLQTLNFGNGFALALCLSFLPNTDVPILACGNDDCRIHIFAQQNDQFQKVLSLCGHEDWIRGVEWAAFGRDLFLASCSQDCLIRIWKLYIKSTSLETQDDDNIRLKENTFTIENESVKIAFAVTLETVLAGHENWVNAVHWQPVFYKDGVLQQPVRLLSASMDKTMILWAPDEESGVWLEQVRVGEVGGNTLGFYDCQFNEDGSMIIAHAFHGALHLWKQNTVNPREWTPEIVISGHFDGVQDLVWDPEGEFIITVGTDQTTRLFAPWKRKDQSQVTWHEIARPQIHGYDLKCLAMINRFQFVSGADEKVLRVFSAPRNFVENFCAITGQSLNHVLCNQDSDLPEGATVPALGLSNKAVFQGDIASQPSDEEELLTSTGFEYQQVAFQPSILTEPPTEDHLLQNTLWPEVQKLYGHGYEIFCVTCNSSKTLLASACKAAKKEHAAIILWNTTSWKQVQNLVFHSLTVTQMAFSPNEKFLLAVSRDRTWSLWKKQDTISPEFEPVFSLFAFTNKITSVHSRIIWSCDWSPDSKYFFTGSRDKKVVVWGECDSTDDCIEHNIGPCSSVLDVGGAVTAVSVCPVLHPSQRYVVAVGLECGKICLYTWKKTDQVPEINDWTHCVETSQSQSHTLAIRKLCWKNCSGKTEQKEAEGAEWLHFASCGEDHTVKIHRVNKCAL
UniProt P47813, whole entry, looked up: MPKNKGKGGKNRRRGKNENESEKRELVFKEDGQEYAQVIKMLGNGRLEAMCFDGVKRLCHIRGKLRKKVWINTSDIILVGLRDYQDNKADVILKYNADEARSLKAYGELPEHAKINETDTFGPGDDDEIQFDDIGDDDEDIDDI
UniProt Q9BV81: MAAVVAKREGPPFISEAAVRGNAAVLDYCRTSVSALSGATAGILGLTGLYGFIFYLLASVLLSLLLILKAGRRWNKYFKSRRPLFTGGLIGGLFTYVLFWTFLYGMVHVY
UniProt P57772: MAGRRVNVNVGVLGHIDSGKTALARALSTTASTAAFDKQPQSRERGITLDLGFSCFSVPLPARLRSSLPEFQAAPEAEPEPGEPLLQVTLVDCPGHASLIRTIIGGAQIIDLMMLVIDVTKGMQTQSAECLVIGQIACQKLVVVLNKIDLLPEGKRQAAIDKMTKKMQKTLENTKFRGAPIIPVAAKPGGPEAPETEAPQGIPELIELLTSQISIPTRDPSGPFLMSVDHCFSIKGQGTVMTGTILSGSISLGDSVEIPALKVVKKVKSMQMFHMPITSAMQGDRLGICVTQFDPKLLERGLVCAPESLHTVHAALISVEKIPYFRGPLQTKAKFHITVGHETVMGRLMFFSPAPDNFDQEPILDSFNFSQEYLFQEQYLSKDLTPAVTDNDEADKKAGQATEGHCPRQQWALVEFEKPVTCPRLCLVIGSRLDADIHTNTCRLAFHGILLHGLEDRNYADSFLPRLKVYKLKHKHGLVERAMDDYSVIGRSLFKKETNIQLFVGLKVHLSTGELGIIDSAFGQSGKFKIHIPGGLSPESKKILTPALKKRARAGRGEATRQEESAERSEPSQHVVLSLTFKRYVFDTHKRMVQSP
UniProt Q96EB1: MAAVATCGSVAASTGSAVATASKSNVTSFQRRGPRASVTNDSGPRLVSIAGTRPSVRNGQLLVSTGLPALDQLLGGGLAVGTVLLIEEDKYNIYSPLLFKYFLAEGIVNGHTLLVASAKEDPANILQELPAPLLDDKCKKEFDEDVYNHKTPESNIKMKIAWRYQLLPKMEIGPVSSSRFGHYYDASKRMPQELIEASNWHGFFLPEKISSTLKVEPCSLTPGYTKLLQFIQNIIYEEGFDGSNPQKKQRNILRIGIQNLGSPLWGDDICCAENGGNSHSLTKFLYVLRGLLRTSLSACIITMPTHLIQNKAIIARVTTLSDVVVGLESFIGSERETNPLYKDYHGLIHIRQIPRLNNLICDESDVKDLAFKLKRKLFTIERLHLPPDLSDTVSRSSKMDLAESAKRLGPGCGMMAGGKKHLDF
UniProt Q8IZ81: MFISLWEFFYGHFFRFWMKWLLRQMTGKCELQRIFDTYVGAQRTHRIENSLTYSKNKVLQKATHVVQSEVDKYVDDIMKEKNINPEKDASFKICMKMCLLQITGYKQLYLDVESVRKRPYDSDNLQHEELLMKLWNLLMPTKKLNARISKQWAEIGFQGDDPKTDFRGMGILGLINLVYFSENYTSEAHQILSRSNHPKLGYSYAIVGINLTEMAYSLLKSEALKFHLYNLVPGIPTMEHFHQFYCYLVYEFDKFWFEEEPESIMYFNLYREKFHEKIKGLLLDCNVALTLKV
UniProt P41567, whole entry, looked up: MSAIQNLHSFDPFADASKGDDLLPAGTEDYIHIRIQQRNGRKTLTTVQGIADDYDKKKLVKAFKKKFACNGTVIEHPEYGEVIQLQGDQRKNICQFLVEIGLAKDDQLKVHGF
UniProt Q14249: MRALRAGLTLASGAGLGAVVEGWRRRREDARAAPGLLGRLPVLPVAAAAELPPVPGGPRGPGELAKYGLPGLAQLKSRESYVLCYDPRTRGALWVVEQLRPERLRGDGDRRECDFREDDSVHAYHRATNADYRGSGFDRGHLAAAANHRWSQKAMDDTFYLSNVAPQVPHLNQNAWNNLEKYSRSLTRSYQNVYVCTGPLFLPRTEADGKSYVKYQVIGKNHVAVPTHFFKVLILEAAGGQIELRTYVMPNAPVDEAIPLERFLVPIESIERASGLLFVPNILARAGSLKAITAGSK
UniProt O75821, whole entry, looked up: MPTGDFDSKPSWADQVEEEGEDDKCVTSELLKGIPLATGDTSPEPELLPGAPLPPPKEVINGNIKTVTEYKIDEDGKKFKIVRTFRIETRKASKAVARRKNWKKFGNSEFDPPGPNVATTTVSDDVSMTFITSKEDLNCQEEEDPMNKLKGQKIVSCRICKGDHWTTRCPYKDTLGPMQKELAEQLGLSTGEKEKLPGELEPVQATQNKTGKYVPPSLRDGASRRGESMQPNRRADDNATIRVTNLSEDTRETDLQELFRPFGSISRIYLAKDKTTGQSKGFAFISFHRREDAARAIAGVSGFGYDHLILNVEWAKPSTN
UniProt Q0PNE2: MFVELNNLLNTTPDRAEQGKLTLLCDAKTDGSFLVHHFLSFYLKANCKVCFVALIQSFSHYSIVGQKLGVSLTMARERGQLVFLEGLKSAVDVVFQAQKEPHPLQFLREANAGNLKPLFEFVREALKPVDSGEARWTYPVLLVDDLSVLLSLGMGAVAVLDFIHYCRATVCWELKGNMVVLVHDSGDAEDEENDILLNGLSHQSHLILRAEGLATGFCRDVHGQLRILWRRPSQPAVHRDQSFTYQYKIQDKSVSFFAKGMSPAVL
UniProt P09104, whole entry, looked up: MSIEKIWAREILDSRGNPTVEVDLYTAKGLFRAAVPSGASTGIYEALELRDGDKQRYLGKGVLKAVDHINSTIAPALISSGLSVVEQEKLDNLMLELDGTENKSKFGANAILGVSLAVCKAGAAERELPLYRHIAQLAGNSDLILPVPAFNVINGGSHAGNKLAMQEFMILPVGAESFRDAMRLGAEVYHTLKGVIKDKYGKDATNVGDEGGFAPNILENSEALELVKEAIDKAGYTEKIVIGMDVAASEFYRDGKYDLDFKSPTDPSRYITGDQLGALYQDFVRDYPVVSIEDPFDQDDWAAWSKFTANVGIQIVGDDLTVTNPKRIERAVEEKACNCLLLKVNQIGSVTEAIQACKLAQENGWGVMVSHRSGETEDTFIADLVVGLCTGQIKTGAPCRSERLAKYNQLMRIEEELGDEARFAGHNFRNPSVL
UniProt Q08426: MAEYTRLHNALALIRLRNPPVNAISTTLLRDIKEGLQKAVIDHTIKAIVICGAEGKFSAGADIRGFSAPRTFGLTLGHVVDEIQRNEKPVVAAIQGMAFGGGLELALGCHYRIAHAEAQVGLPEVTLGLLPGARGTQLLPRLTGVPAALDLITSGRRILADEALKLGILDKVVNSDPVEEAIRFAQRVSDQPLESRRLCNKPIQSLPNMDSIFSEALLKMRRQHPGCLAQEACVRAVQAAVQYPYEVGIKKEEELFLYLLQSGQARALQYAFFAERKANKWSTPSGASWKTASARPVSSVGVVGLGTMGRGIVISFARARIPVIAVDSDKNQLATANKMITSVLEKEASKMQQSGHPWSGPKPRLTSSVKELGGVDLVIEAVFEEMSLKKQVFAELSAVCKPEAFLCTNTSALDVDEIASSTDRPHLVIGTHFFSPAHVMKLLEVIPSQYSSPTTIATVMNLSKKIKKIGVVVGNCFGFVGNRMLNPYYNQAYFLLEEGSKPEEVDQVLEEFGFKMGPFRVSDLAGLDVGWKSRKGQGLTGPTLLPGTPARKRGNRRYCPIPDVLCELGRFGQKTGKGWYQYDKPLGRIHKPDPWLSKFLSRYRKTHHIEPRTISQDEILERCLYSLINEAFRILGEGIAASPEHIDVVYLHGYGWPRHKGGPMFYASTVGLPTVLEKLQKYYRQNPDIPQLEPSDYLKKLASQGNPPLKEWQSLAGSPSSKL
UniProt P54852: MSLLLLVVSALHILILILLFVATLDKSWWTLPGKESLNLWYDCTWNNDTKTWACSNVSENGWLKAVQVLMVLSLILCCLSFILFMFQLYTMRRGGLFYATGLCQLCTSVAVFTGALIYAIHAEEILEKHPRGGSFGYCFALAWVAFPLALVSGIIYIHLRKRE
UniProt P98172: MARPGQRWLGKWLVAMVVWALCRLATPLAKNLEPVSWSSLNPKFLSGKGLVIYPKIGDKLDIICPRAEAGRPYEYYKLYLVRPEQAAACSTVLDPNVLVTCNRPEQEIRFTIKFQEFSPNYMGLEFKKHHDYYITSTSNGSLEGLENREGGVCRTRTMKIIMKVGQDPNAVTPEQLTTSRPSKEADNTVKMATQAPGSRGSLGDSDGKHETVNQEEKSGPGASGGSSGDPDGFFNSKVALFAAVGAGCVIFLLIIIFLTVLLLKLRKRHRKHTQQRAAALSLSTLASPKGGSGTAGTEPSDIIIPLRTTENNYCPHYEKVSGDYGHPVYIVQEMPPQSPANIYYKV

The other results are listed elsewhere or left out.

Compound in the first assay: C1=CC(=CC=C1C2=NC3=C(N2)C=C(C=C3)C(=O)N)OC4=CC=C(C=C4)Cl
The assay can be described thus: log2 fold change, soluble protein after heating vs DMSO (PISA); higher = thermal stabilisation; K562 cells, 10 uM, 30 min; active = over 0.2 and 3.5 SD of the protein, either way, in both replicates (recomputed). In outline:
(§1)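 K562 cells at 2×10^6 cells/mL were treated for 30 min with 10 μM compound, and aliquots were heated for 3 min over 48°C-58°C before pooling. Extraction used PBS with 0.5% NP-40 at 4°C, and soluble protein was the supernatant after 21,000xg for 90 min, measured by TMTpro 16plex LC-MS/MS with channel sums equalised. Thermal stability values, relative to control samples and from duplicates, are log2 fold changes.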
On to EMC7 (UniProt Q9NPA0), for which the log2 fold change is inactive: 0.008.
Same read-out and setting: the value for EIF2S1 (UniProt P05198) was inactive: -0.004.
Same read-out and setting: to EIF3A (UniProt Q14152) belongs inactive: -0.047.
The same measure, in the same setting: to EIF2B3 (UniProt Q9NR50) belongs inactive: 0.043; to ENO3 (UniProt P13929), inactive: 0.005.
As to EIF3L (UniProt Q9Y262), the log2 fold change was inactive: 0.021.
Turning to EPB41 (UniProt P11171), the log2 fold change is inactive: 0.042.
Still for that read-out and setting: to EIF2B2 (UniProt P49770) belongs inactive: 0.008.
The same measure, in the same setting: to ENSA isoform 3 (UniProt O43768) belongs inactive: 0.017; to ELP2 isoform 6 (UniProt Q6IA86), inactive: -0.003; to EIF1AX (UniProt P47813), inactive: -0.017.
Same read-out and setting: the value for EMC6 (UniProt Q9BV81) was inactive: -0.07.
Consider EIF4B (UniProt P23588), for which the log2 fold change is inactive: 0.027.
Consider EIF3H (UniProt O15372), for which the log2 fold change is inactive: -0.007.
For EEFSEC (UniProt P57772), the log2 fold change was inactive: -0.029.
ELP4 (UniProt Q96EB1): the log2 fold change was inactive: 0.06.
Still for that read-out and setting: to ELMOD2 (UniProt Q8IZ81) belongs inactive: -0.02; to EML3 isoform 2 (UniProt Q32P44), inactive: -0.002.
On the same count and under the same terms, to ELOB (UniProt Q15370) belongs inactive: -0.01; to EEF2 (UniProt P13639), inactive: 0.011; to EI24 (UniProt O14681), inactive: 0.042.
In the case of EHMT2 (UniProt Q96KQ7), the log2 fold change was inactive: -0.045.
On the same count and under the same terms, to EIF1 (UniProt P41567) belongs inactive: 0.021.
The same measure, in the same setting: to EIF3D (UniProt O15371) belongs inactive: -0.082; to ENDOG (UniProt Q14249), inactive: -0.042.
With EIF3G (UniProt O75821), the log2 fold change is inactive: 0.031.
Regarding ELP6 (UniProt Q0PNE2), the log2 fold change is inactive: 0.012.
The same measure, in the same setting: the value for ENO2 (UniProt P09104) was inactive: 0.053; that for EIF3E (UniProt P60228) was inactive: -0.022; that for EHHADH (UniProt Q08426) was inactive: 0.115.
Still for that read-out and setting: to EP300 (UniProt Q09472) belongs inactive: 0.047; to EIF2D (UniProt P41214), inactive: 0; to EMP3 (UniProt P54852), inactive: -0.021.
On to EFNB1 (UniProt P98172), for which the log2 fold change is inactive: 0.015.

Compound in the next assay: C1=CC2=C(C=CC(=C2)/C=C\3/C(=O)NC(=NCC4=CC=CS4)S3)N=C1
The description is as above. In outline:
as §1
As to EMC7 (UniProt Q9NPA0), the log2 fold change was inactive: 0.062.
The same measure, in the same setting: the value for EIF2S1 (UniProt P05198) was inactive: -0.035; that for EIF3A (UniProt Q14152) was inactive: 0.033; that for EIF2B3 (UniProt Q9NR50) was inactive: 0.007.
Same read-out and setting: to ENO3 (UniProt P13929) belongs inactive: -0.094.
For the target EIF3L (UniProt Q9Y262), the log2 fold change is inactive: -0.003.
The same measure, in the same setting: to EPB41 (UniProt P11171) belongs inactive: -0.023; to EIF2B2 (UniProt P49770), inactive: -0.001; to ENSA isoform 3 (UniProt O43768), inactive: -0.062.
For ELP2 isoform 6 (UniProt Q6IA86), the log2 fold change is inactive: 0.042.
Still for that read-out and setting: to EIF1AX (UniProt P47813) belongs inactive: -0.019; to EMC6 (UniProt Q9BV81), inactive: 0.049; to EIF4B (UniProt P23588), inactive: -0.042.
As for EIF3H (UniProt O15372), the log2 fold change was inactive: -0.024.
Same read-out and setting: to EEFSEC (UniProt P57772) belongs inactive: 0.093; to ELP4 (UniProt Q96EB1), inactive: -0.014.
The same measure, in the same setting: to ELMOD2 (UniProt Q8IZ81) belongs inactive: 0.041; to EML3 isoform 2 (UniProt Q32P44), inactive: -0.04.
Same read-out and setting: the value for ELOB (UniProt Q15370) was inactive: 0.075; that for EEF2 (UniProt P13639) was inactive: -0.01; that for EI24 (UniProt O14681) was inactive: 0.049.
EHMT2 (UniProt Q96KQ7): the log2 fold change was inactive: 0.026.
With EIF1 (UniProt P41567), the log2 fold change is inactive: -0.073.
Same read-out and setting: to EIF3D (UniProt O15371) belongs inactive: 0.071; to ENDOG (UniProt Q14249), inactive: 0.03.
Same read-out and setting: the value for EIF3G (UniProt O75821) was inactive: -0.058; that for ELP6 (UniProt Q0PNE2) was inactive: 0.017.
For ENO2 (UniProt P09104), the log2 fold change was inactive: 0.023.
On the same count and under the same terms, to EIF3E (UniProt P60228) belongs inactive: 0.035.
On the same count and under the same terms, the value for EHHADH (UniProt Q08426) was inactive: 0.03.
For the target EP300 (UniProt Q09472), the log2 fold change was inactive: 0.076.
The same measure, in the same setting: to EIF2D (UniProt P41214) belongs inactive: 0.152.
On the same count and under the same terms, the value for EMP3 (UniProt P54852) was inactive: 0.016.
Same read-out and setting: to EFNB1 (UniProt P98172) belongs inactive: -0.106.

Compound in a further assay: C1=CC2=NC=CN=C2C=C1/C=C/3\C(=O)NC(=O)S3
Described as above. In a few lines: as §1
Consider EMC7 (UniProt Q9NPA0), for which the log2 fold change is inactive: 0.011.
The same measure, in the same setting: the value for EIF2S1 (UniProt P05198) was inactive: -0.011; that for EIF3A (UniProt Q14152) was inactive: -0.019.
Same read-out and setting: the value for EIF2B3 (UniProt Q9NR50) was inactive: 0.008; that for ENO3 (UniProt P13929) was inactive: 0.035; that for EIF3L (UniProt Q9Y262) was inactive: 0.024.
On the same count and under the same terms, the value for EPB41 (UniProt P11171) was inactive: -0.015; that for EIF2B2 (UniProt P49770) was inactive: 0.009.
In the case of ENSA isoform 3 (UniProt O43768), the log2 fold change is inactive: 0.015.
The same measure, in the same setting: to ELP2 isoform 6 (UniProt Q6IA86) belongs inactive: -0.026; to EIF1AX (UniProt P47813), inactive: 0.017.
For the target EMC6 (UniProt Q9BV81), the log2 fold change is inactive: -0.007.
On the same count and under the same terms, to EIF4B (UniProt P23588) belongs inactive: -0.003; to EIF3H (UniProt O15372), inactive: 0.058; to EEFSEC (UniProt P57772), inactive: -0.08.
On the same count and under the same terms, to ELP4 (UniProt Q96EB1) belongs inactive: -0.002; to ELMOD2 (UniProt Q8IZ81), inactive: 0.03; to EML3 isoform 2 (UniProt Q32P44), inactive: -0.044.
Still for that read-out and setting: to ELOB (UniProt Q15370) belongs inactive: 0.061.
For EEF2 (UniProt P13639), the log2 fold change was inactive: -0.005.
On the same count and under the same terms, the value for EI24 (UniProt O14681) was inactive: 0.115.
On the same count and under the same terms, to EHMT2 (UniProt Q96KQ7) belongs inactive: 0.056; to EIF1 (UniProt P41567), inactive: 0.028.
On the same count and under the same terms, the value for EIF3D (UniProt O15371) was inactive: -0.012; that for ENDOG (UniProt Q14249) was inactive: -0.002; that for EIF3G (UniProt O75821) was inactive: 0.017.
On to ELP6 (UniProt Q0PNE2), for which the log2 fold change was inactive: 0.014.
The same measure, in the same setting: the value for ENO2 (UniProt P09104) was inactive: 0.001; that for EIF3E (UniProt P60228) was inactive: -0.027; that for EHHADH (UniProt Q08426) was inactive: -0.005.
On the same count and under the same terms, the value for EP300 (UniProt Q09472) was inactive: 0.041.
On the same count and under the same terms, the value for EIF2D (UniProt P41214) was inactive: -0.022; that for EMP3 (UniProt P54852) was inactive: 0.031; that for EFNB1 (UniProt P98172) was inactive: -0.038.
